Experimental data from US8710184B2 (Daiichi Sankyo Company, Limited, priority 2009, dated 2014).
HELM strings list residues between dots; [ac] is acetyl, [am] amide, other brackets name non-standard units. Starred links: 1 amine or outer side, 2 acyl side, 3 side chain; linkers in the order of their positions; H or OH if unused. Non-standard residues stand in square brackets, D forms with d. X1 = CC(C)[C@@H](C(=O)[*:2])N(C[C@@H](N)Cc1ccccc1)[*:1]

How the values were obtained:
[1] = general procedure: Fmoc solid-phase peptide synthesis; Fmoc-Gln(Trt)-Alko resin; HBTU/HOBt; DCC/HOBt for final Boc-Phe-OH; details: whole synthesis, scale 0.03 mmol
[2] = general procedure: Fmoc solid-phase peptide synthesis; Fmoc-Gln(Trt)-Alko resin (WATANABE CHEMICAL); HBTU/HOBt; DCC/HOBt for final Boc-Phe-OH; details: whole synthesis, UV 220 nm, scale of the general procedure 0.03 mmol

Substance | crude mass [1] | isolated mass [1] | final HPLC purity [2] [%]
H-[X1]PIFTYGELQRMQEKERNKPQ-OH (N-terminus and C-terminus assumed; SMILES CC[C@H](C)[C@H](NC(=O)[C@@H]1CCCN1C(=O)[C@@H](NC[C@@H](N)Cc1ccccc1)C(C)C)C(=O)N[C@@H](Cc1ccccc1)C(=O)N[C@H](C(=O)N[C@@H](Cc1ccc(O)cc1)C(=O)NCC(=O)N[C@@H](CCC(=O)O)C(=O)N[C@@H](CC(C)C)C(=O)N[C@@H](CCC(N)=O)C(=O)N[C@@H](CCCNC(=N)N)C(=O)N[C@@H](CCSC)C(=O)N[C@@H](CCC(N)=O)C(=O)N[C@@H](CCC(=O)O)C(=O)N[C@@H](CCCCN)C(=O)N[C@@H](CCC(=O)O)C(=O)N[C@@H](CCCNC(=N)N)C(=O)N[C@@H](CC(N)=O)C(=O)N[C@@H](CCCCN)C(=O)N1CCC[C@H]1C(=O)N[C@@H](CCC(N)=O)C(=O)O)[C@@H](C)O) | about 30 mg | about 5.0 mg | 98.7
PEPTIDE1{F.V.P.I.F.T.Y.G.E.L.Q.R.M.Q.E.K.E.R.N.K.P.Q}$$$$V2.0 | about 30 mg | about 5.0 mg | 96.0
